Source: PubChem BioAssay AID624297 (National Center for Advancing Translational Sciences (NCATS), 2012)
Screen size: about 340,000 compounds; about 6,200 (1.8%) were called active. The inconclusive results got no clear call from the source; some entries with a clear call stand among them for comparison. The call rests on the fitted dose curve; in most records, active means well fitted activation curve with a large enough effect; inconclusive means small, poorly fitted or top-dose-only effect; inactive means no such curve, though single readings can be large or run the other way. Potencies of inconclusive entries are doubtful fits and often do not repeat.

Test: A quantitative high throughput screen for small molecules that induce DNA re-replication in SW480 colon adenocarcinoma cells. Further: nearly all actives have a fitted effect of over 55% in size. On re-replication activation: % of control where 0% means no effect.
Settings: Hoechst DNA content imaging, 48 h; re-replication activation: at 46.1 µM (top of the series) unless noted
In short: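 Hoechst fluorescence of nuclei (405 nm excitation, 500-530 nm emission) measured by plate-scanning imager after 48 hr compound exposure at 37 C; re-replication scored as increased number of nuclei with elevated intensity.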
Potency means the concentration at half of the fitted maximal effect.

With COc1cc(CNn2nnnc2N)cc(Br)c1OCc1c(Cl)cccc1Cl as the compound, how does the “re-replication activation” value read?
Its value is inactive: 1.65%.

With CCN(CC)c1ccc(/C=N/NC(=O)c2cnccn2)cc1 as the compound, how does the Potency read?
Its Potency is inconclusive: 3.26 µM [activator, partial curve, poor fit].

For Cn1c(/C(C#N)=C/C2CC=CCC2)nc2ccccc21 (configuration not stated), which “re-replication activation” value is on record?
The value was inactive: -8.99%.

With Cc1nc2c(sc3nc(N4CCOCC4)c4c(c32)CC(C)(C)OC4)c(-c2ccc(Cl)cc2)c1C(=O)O as the compound, how does the Potency read?
Its Potency is active: 5.17 µM.

For COc1ccc(NC(=O)CSc2nc(N)cc(=O)[nH]2)cc1S(=O)(=O)N1CCCCC1, which Potency is on record?
Its Potency is inconclusive: 10.3 µM [activator, single point].

Which “re-replication activation” value does the source give for Cc1csc(=O)n1CC(=O)Nc1ccc(S(C)(=O)=O)cc1 here?
The value was inactive: -2.89%.

For CCOc1cccc(/C=N/NC(=O)c2cc(C3CC3)[nH]n2)c1O, which Potency is on record?
The Potency was inconclusive: 16.4 µM [activator, partial curve, poor fit].

Which Potency does the source give for Cc1cc(SCC(=O)N/N=C/c2ccc(O)cc2O)nc2ccccc12 here?
Its Potency is active: 11.6 µM.

For COc1ccc(CCOC(=O)c2cccc(NC(C)=O)c2)cc1, which Potency is on record?
The Potency was inconclusive: 29.1 µM [activator, single point].

Which “re-replication activation” value does the source give for Cc1ccc(-n2nc3c(N4CCC(C(=O)NCCc5ccccc5C)CC4)nnc(C)c3c2C)cc1 here?
Its value is inactive: 9.46%.

For Cc1ccc(S(=O)(=O)N2CCC(C(=O)N[C@@H](C)C(=O)Nc3ccc4c(c3)OCO4)CC2)cc1, which Potency is on record?
The Potency was inconclusive: 23.1 µM [activator, single point].

Which Potency does the source give for CC(=O)Nc1cc2c(cc1[N+](=O)[O-])-c1ccc(F)cc1C2 here?
Its Potency is inconclusive: 29.1 µM [activator, single point].

For COc1cc(CCC(=O)OCC(=O)Nc2cccc(S(N)(=O)=O)c2)cc(OC)c1OC, which Potency is on record?
Its Potency is inconclusive: 0.13 µM [activator, full curve, poor fit].

Which “re-replication activation” value does the source give for Cc1cccc(-c2sc(Nc3ccccc3)n[n+]2-c2ccccc2)c1 here?
Its value is inactive: -18.5%.

With O=C(Nc1ccccc1C(=O)Nc1nnc(C(F)(F)F)s1)c1ccccc1Cl as the compound, how does the Potency read?
Its Potency is inconclusive: 18.4 µM [activator, single point].

Which “re-replication activation” value does the source give for CC(=O)NNC(=O)c1nc(-c2ccccc2)c(C)o1 here?
Its value is inactive: -1.5%.

With CCOC(=O)c1[nH]c2ccc(OC)cc2c1NC(=O)OC as the compound, how does the “re-replication activation” value read?
The value was inactive: -8.18%.

Which Potency does the source give for Cc1cccc(OCc2nnc(SCc3nc4cc(C(F)(F)F)ccc4c(=O)[nH]3)o2)c1 here?
The Potency was inconclusive: 18.4 µM [activator, single point].

For C#CCOCCOCCOCCNc1nc(N2CCN(C(=O)CCCCCCCCCCNC(=O)Cn3cc(CCCCCN)nn3)CC2)nc(N2CCN(C(=O)CCCCCCCCCCNC(=O)[C@H](CO)n3cc(CCCCCN)nn3)CC2)n1, which “re-replication activation” value is on record?
The value was inactive: -12.3%.

Which “re-replication activation” value does the source give for COc1ccc(OC)c(NC(=O)c2ccc(-c3cccs3)cc2)c1 here?
The value was inactive: 23%.

Which Potency does the source give for CC(=O)c1ccc(S(=O)(=O)Nc2ccc(C(=O)N(C)CC(=O)Nc3cccc(C)c3C)cc2)cc1 here?
The Potency was inconclusive: 29.1 µM [activator, single point].

With COc1cc(C(=O)NNC(=O)COc2ccc(Cl)cc2)ccc1OCC(=O)N1CCOCC1 as the compound, how does the “re-replication activation” value read?
Its value is inactive: -2.79%.

For CN1CCN(c2ccccc2NC(=O)Cn2ncc3c([nH]c4ccccc43)c2=O)CC1, which Potency is on record?
The Potency was inconclusive: 5.8 µM [activator, partial curve, poor fit].

For Cc1cc(C(=O)CN2CCN(CC(=O)Nc3ccc(F)cc3)CC2)c(C)n1C1CC1, which “re-replication activation” value is on record?
The value was inactive: -8.15%.

Which Potency does the source give for Cc1cc(C)c(S(=O)(=O)NCC23C=CC(O2)C2C(=O)N(c4ccccc4)C(=O)C23)c(C)c1 (configuration not stated) here?
The Potency was inconclusive: 29.1 µM [activator, single point].

For CC(=O)c1ccc(S(=O)(=O)N2CCN(CC(=O)Nc3ccc(Cl)c([N+](=O)[O-])c3)CC2)cc1, which Potency is on record?
The Potency was inconclusive: 3.26 µM [activator, partial curve, poor fit].

With COc1cccc(CCNC(=O)CCc2nnc(-c3ccc4c(c3)OCO4)o2)c1 as the compound, how does the Potency read?
The Potency was inconclusive: 0.82 µM [activator, full curve, poor fit].

Which Potency does the source give for O=C1ON=C(c2ccccc2)/C1=C/c1ccc(-c2ccccc2[N+](=O)[O-])o1 here?
Its Potency is inconclusive: 29.1 µM [activator, single point].

For CC(=O)c1cccc(S(=O)(=O)N2CCCC(c3nc4c(nnn4Cc4ccccc4Cl)c(=O)[nH]3)C2)c1 (configuration not stated), which “re-replication activation” value is on record?
The value was inactive: -8.32%.

Which Potency does the source give for CCn1c(Cn2nnc(-c3ccccc3)n2)nnc1SCC(=O)Nc1cccc(C(C)=O)c1 here?
The Potency was inconclusive: 16.4 µM [activator, single point].

For N/C(=N\c1nc2ccccc2o1)NC(=O)c1cccc(Br)c1, which Potency is on record?
Its Potency is inconclusive: 13 µM [activator, single point].

Which Potency does the source give for CN1CCN(c2ccc(S(=O)(=O)N3CCCCC3)cc2NC(=O)c2ccc3ccccc3c2)CC1 here?
The Potency was inconclusive: 0.82 µM [activator, full curve, poor fit].

With O=c1cc[nH]c2ccc(OC(F)(F)F)cc12 as the compound, how does the Potency read?
The Potency was inconclusive: 0.231 µM [activator, full curve, poor fit].

For COc1ccc(C(=O)C2CCN(CC(=O)Nc3cc(C)cc(C)c3)CC2)cc1, which “re-replication activation” value is on record?
The value was inactive: 27.6%.

With COCCOC(=O)c1c(C)nc(SCC(=O)Nc2ccc(OC)cc2)c(C#N)c1-c1ccco1 as the compound, how does the Potency read?
Its Potency is inconclusive: 6.51 µM [activator, partial curve, poor fit].

For CCOc1ccc2nc(C)cc(Nc3ccc4c(c3)OCCO4)c2c1, which Potency is on record?
Its Potency is inconclusive: 29.1 µM [activator, single point].

With NC1=C(Cl)C(=O)c2ccccc2C1=O as the compound, how does the Potency read?
Its Potency is active: 16.4 µM.

For COc1ccc(/C=C/C(=O)N(CC(C)C)CC(C)C)cc1Br, which Potency is on record?
Its Potency is inconclusive: 18.4 µM [activator, single point].

Which “re-replication activation” value does the source give for CN(CCCOc1ccccc1Br)Cc1ccccc1 here?
The value was inactive: -1.65%.

Which “re-replication activation” value does the source give for CC1=C(C(=O)OCCNC(=O)c2cccnc2)C(c2cccc([N+](=O)[O-])c2)C(C(=O)OCCN(C)C)=C(C)N1 (configuration not stated) here?
The value was inactive: -45.9%.

Which Potency does the source give for CC(=O)c1ccc(-c2ccc(C(=O)N3CCCc4ccccc43)o2)cc1 here?
The Potency was inconclusive: 29.1 µM [activator, single point].

With CCC(=O)N1CCN(c2ccccc2NC(=O)c2ccc([N+](=O)[O-])o2)CC1 as the compound, how does the Potency read?
The Potency was inconclusive: 18.4 µM [activator, single point].
